Assay results taken from patent EP2386565A2 (Cambridge Enterprise Ltd., priority 1999, dated 2000).

Test: peptide made by a vendor (peptide synthesis; Rink amide resin)
Details: whole synthesis, HPLC, triacetate salt

With “CRD-Leu4Ile11Cys13 peptide 3(3-12)[MCP-I]” the “final purity (method not given)” value was over 97%.
